Measurements taken from the supplement of paper PMC10849652.
Some of the results follow.

The chains behind the UniProt entries cited, without tags or fusion partners. Where a name states a change or a piece, a line headed by the entry shows the natural chain unless it says otherwise.
UniProt Q9Y450, whole entry, looked up: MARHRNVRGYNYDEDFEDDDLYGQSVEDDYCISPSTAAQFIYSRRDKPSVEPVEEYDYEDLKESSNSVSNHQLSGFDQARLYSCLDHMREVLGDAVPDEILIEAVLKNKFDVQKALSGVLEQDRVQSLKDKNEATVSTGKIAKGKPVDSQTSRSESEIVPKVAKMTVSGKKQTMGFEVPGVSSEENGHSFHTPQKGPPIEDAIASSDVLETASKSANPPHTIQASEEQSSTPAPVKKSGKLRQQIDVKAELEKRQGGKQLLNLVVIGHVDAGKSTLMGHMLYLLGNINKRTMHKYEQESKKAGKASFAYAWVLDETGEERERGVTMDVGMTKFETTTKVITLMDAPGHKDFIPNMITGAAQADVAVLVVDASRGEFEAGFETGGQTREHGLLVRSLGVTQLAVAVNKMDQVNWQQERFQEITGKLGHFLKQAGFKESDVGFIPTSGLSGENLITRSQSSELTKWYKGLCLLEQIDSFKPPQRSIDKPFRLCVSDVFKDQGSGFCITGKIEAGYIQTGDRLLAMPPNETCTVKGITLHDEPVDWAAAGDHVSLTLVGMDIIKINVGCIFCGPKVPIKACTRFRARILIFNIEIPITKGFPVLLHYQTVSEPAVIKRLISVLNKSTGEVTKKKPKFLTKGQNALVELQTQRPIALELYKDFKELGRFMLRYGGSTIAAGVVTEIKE
UniProt A4D1E9: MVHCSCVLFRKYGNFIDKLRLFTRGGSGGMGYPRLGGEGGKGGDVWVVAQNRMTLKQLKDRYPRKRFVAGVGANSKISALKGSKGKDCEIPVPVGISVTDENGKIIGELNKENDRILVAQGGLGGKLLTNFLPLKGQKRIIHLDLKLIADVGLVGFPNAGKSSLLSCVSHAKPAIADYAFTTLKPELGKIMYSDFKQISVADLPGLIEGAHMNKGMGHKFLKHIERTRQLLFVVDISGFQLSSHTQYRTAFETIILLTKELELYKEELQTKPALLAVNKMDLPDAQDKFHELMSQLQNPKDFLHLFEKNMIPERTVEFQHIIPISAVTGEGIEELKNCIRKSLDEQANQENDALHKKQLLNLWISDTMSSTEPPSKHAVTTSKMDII
UniProt P28161: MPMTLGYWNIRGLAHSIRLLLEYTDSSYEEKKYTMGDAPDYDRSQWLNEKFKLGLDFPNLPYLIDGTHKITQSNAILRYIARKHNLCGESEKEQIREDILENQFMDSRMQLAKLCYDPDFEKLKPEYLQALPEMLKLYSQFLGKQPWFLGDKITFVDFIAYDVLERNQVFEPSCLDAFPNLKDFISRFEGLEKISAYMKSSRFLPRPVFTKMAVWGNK
UniProt P51858: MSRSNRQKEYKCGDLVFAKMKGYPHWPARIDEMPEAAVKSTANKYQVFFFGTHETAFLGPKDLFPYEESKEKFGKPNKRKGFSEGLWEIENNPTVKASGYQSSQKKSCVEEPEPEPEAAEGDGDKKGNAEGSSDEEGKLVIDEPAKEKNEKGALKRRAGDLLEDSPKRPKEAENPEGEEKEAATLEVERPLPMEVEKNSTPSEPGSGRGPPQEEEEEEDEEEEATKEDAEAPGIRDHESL
UniProt Q03013: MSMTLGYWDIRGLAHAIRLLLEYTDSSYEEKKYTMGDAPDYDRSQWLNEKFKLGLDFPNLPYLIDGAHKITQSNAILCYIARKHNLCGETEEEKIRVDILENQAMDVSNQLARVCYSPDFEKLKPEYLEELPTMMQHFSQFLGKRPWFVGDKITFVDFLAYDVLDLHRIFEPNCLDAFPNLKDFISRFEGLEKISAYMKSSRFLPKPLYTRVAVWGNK
UniProt O94927: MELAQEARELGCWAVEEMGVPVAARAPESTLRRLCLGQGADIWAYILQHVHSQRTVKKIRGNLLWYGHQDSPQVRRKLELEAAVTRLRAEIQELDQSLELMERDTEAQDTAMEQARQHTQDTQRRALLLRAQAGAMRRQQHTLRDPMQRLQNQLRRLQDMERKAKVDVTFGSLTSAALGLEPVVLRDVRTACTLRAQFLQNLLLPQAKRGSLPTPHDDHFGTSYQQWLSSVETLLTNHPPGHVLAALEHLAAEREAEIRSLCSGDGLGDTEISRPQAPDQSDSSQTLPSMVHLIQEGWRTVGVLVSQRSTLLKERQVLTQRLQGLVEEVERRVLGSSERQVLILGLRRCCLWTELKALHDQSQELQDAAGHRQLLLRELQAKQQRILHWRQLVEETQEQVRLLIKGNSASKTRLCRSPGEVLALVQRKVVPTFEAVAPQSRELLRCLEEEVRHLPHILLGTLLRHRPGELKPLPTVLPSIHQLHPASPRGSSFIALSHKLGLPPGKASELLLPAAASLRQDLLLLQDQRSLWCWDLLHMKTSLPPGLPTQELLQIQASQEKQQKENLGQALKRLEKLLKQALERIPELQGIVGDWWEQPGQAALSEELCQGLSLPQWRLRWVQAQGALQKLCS
UniProt P55084: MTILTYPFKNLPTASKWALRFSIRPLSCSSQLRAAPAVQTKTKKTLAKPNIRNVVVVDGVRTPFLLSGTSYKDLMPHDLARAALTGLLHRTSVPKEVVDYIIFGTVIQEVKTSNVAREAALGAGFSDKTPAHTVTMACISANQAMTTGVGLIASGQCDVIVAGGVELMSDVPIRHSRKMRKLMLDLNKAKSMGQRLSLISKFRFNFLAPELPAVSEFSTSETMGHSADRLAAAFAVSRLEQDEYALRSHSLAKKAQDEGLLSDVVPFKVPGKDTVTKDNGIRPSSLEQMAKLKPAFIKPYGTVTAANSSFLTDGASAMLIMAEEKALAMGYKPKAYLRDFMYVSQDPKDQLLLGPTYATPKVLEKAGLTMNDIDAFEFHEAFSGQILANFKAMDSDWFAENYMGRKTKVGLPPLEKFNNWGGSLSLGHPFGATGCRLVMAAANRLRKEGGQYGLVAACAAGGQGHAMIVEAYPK
UniProt Q969Y2: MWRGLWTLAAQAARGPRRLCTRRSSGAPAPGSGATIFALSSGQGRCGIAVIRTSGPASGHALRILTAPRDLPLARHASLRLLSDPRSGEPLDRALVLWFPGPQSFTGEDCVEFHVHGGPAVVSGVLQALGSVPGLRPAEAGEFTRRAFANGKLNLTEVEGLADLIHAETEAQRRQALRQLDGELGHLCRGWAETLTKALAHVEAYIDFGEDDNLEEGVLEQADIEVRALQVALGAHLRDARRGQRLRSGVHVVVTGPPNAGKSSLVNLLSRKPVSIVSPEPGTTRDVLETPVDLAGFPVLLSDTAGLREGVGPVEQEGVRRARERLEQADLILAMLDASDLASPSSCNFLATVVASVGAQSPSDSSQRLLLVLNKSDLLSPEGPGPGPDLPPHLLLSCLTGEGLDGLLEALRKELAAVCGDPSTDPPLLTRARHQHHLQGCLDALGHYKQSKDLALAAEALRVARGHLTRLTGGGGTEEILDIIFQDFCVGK
UniProt Q86XA9: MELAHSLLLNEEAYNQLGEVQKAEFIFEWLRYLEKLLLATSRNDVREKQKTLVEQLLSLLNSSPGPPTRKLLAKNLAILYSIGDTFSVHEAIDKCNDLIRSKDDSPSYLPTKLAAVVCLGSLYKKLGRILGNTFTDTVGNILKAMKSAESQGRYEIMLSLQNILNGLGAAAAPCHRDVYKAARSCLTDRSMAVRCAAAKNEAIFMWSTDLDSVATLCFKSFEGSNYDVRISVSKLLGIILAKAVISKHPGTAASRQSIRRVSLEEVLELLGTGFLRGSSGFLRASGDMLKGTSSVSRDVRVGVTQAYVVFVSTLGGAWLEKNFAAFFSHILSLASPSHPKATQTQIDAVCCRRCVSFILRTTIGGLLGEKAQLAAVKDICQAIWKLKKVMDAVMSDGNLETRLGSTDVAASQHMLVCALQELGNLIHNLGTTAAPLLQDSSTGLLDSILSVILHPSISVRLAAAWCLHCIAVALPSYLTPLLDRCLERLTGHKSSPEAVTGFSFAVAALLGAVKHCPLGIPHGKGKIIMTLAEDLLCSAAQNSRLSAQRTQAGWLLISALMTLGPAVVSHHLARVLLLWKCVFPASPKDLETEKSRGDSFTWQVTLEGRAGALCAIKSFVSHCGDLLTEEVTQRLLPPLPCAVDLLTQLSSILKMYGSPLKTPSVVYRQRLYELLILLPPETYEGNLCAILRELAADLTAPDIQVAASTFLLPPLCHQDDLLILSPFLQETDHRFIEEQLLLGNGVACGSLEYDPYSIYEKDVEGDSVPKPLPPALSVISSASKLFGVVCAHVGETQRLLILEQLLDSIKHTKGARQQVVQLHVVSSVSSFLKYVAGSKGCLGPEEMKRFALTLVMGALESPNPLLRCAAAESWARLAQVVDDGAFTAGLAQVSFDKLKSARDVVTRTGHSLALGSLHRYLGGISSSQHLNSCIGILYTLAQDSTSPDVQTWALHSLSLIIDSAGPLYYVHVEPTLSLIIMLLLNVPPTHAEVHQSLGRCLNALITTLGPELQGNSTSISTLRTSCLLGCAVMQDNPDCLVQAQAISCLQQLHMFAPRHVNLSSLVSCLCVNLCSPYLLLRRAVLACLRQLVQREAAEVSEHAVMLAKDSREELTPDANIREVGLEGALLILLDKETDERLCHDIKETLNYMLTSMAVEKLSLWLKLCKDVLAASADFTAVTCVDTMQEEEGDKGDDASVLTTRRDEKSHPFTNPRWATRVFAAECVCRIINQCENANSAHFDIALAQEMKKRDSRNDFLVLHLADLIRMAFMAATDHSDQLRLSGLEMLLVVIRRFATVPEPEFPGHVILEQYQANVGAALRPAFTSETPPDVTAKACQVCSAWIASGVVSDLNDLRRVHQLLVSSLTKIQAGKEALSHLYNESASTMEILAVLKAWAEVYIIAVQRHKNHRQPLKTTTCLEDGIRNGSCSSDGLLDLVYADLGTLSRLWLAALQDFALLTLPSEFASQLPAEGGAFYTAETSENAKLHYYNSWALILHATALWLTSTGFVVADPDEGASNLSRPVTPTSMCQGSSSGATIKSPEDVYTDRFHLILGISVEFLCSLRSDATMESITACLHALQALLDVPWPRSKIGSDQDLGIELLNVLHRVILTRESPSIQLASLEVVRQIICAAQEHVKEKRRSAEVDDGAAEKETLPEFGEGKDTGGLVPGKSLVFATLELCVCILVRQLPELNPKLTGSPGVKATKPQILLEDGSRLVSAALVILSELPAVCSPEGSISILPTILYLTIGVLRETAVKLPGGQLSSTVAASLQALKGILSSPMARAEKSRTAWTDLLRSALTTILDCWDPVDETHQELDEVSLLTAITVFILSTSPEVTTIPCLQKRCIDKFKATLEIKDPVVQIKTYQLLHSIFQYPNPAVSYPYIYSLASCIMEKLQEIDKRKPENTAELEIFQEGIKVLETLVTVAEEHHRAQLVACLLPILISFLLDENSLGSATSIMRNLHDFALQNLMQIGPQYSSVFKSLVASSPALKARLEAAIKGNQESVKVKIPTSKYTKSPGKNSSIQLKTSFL
UniProt P16401, whole entry, looked up: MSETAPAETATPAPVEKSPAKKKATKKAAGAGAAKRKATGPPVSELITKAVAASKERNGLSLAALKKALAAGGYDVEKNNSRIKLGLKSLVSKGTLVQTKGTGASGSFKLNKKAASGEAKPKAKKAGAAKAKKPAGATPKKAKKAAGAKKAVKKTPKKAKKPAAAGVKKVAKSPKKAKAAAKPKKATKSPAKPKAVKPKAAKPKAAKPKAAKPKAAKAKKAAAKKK
UniProt P52655, whole entry, looked up: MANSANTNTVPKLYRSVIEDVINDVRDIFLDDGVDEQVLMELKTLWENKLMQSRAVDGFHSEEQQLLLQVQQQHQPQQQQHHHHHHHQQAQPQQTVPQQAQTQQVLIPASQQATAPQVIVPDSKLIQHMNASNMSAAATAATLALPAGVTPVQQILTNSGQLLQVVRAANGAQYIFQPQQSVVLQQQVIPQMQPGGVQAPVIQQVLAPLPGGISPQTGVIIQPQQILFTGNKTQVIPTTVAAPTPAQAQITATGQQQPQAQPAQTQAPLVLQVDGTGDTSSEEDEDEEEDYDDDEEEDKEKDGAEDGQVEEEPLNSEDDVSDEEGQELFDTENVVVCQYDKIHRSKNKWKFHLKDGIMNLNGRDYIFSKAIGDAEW
UniProt Q96CS2: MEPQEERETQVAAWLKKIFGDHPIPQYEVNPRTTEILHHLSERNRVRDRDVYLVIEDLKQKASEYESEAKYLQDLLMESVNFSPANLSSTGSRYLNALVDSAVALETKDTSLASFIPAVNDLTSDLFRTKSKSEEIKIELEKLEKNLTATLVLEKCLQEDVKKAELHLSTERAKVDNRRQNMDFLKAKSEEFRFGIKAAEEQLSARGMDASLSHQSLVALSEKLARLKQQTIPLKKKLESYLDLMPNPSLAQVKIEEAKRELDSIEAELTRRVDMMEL
UniProt Q9UBQ7: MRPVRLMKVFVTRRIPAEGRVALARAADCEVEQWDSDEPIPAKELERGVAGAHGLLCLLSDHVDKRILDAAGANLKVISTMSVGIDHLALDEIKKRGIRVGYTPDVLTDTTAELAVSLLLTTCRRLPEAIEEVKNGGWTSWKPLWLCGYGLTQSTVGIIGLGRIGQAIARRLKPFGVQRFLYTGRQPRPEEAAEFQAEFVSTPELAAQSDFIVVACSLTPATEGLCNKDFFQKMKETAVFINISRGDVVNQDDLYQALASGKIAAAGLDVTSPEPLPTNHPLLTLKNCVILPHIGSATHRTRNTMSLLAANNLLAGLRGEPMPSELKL

Experiments:
Experiment in all cases: log2 fold change, soluble protein after heating vs DMSO (PISA); higher = thermal stabilisation; K562 lysate, 10 uM; active = over 0.2 and 3.5 SD of the protein, either way, in both replicates (recomputed)
ibrutinib = compound: C=CC(=O)N1CCC[C@@H](n2nc(-c3ccc(Oc4ccccc4)cc3)c3c(N)ncnc32)C1 [ibrutinib]
Method in brief: (§1)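 Pellets of K562 cells were dounce-homogenised in PBS pH 7.4 with 1 mM MgCl2, and the crude extract was held at 1 mg/mL protein for a 30 min treatment with 10 μM compound. Aliquots were heated for 3 min over 48°C-58°C and pooled before NP-40 was added to 0.5% at 4°C. The supernatant from 21,000xg for 90 min was quantified by TMTpro 16plex LC-MS/MS with channel sums equalised. Values are reported from duplicates as log-two fold change in thermal stability relative to solvent controls.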

[1] = compound: CC(=O)c1cnc2ccc(-c3cc(Cl)c(O)c(Cl)c3)nc2c1N[C@H]1CC[C@H](CN(C)C)CC1
Method in brief: as §1

ralimetinib = compound: CC(C)(C)Cn1c(N)nc2ccc(-c3[nH]c(C(C)(C)C)nc3-c3ccc(F)cc3)nc21 [ralimetinib]
Method in brief: as §1

[2] = compound: CC(C)(O)CC(=O)NCCn1ccc2ncnc(Nc3ccc(Oc4cccc(C(F)(F)F)c4)c(Cl)c3)c21
Method in brief: as §1

[3] = compound: CC(C)C1=C2N=C(C=C(N2N=C1)NCC3=CC=CC=C3)NCCCCCCN
Method in brief: as §1

[4] = compound: CC1=C(C(CC(=O)N1)C2=CC=C(C=C2)C(F)(F)F)C(=O)NC3=C(C=C4C(=C3)C=NN4)F
Method in brief: as §1

[5] = compound: CC1=C(C2=C(C=C1)C(=O)C3=CC=CC=C3N2CCCN)C
Method in brief: as §1

[6] = compound: CC1=C(C=C(C=C1)NC(=O)C2=CC(=CC=C2)C(C)(C)C#N)NC3=CC4=C(C=C3)N=CN(C4=O)C
Method in brief: as §1

[7] = compound: CC1=C(C=C(C=C1)NC(=O)C2=CC(=CC=C2)N(C)C)NC(=O)C3=CC=C(C=C3)O
Method in brief: as §1

[8] = compound: CC1=CC=C(C=C1)SC2=C3C=C(SC3=CN=C2)C(=O)N
Method in brief: as §1

vemurafenib = compound: CCCS(=O)(=O)Nc1ccc(F)c(C(=O)c2c[nH]c3ncc(-c4ccc(Cl)cc4)cc23)c1F [vemurafenib]
Method in brief: as §1

[9] = compound: CCCS(=O)(=O)Nc1ccc(F)c(C(=O)c2c[nH]c3ncc(Cl)cc23)c1F
Method in brief: as §1

barasertib = compound: CCN(CCCOc1ccc2c(Nc3cc(CC(=O)Nc4cccc(F)c4)[nH]n3)ncnc2c1)CCOP(=O)(O)O [barasertib]
Method in brief: as §1

[10] = compound: CC[C@@H]1C(=O)N(C)c2cnc(Nc3ccc(C(=O)NC4CCN(C)CC4)cc3OC)nc2N1C1CCCC1
Method in brief: as §1

volasertib = compound: CC[C@@H]1C(=O)N(C)c2cnc(Nc3ccc(C(=O)N[C@H]4CC[C@H](N5CCN(CC6CC6)CC5)CC4)cc3OC)nc2N1C(C)C [volasertib]
Method in brief: as §1

[11] = compound: CCn1c(C(=O)N(C2CC2)C2CC2)cc2c3c(ncn3C)c(Nc3cc(C)n(C)n3)nc21
Method in brief: as §1

[12] = compound: CCn1cc(-c2ccnc3[nH]c(-c4cccc(CN(C)C)c4)cc23)c(-c2ccc(NC(=O)N(C)C)cc2)n1
Method in brief: as §1

[13] = compound: CN1CCC(CNc2ccc3ncc(-c4cccc(OC(F)(F)F)c4)n3n2)CC1
Method in brief: as §1

saracatinib = compound: CN1CCN(CCOc2cc(OC3CCOCC3)c3c(Nc4c(Cl)ccc5c4OCO5)ncnc3c2)CC1 [saracatinib]
Method in brief: as §1

sotrastaurin = compound: CN1CCN(c2nc(C3=C(c4c[nH]c5ccccc45)C(=O)NC3=O)c3ccccc3n2)CC1 [sotrastaurin]
Method in brief: as §1

Target	log2 fold change (ibrutinib)	log2 fold change [1]	log2 fold change (ralimetinib)	log2 fold change [2]	log2 fold change [3]	log2 fold change [4]	log2 fold change [5]	log2 fold change [6]	log2 fold change [7]	log2 fold change [8]	log2 fold change (vemurafenib)	log2 fold change [9]	log2 fold change (barasertib)	log2 fold change [10]	log2 fold change (volasertib)	log2 fold change [11]	log2 fold change [12]	log2 fold change [13]	log2 fold change (saracatinib)	log2 fold change (sotrastaurin)
GSK3B isoform 2 (UniProt P49841)	inactive: -0.064	inactive: 0.344	inactive: -0.012	inactive: -0.008	inactive: -0.016	inactive: -0.04	inactive: -0.006	inactive: -0.018	inactive: -0.029	inactive: 0.189	inactive: -0.009	inactive: 0.038	inactive: 0.026	inactive: -0.015	inactive: -0.093	inactive: -0.011	inactive: -0.013	inactive: 0.096	inactive: -0.049	inactive: 0.601
HBS1L isoform 2 (UniProt Q9Y450)	inactive: 0.035	inactive: 0.002	inactive: 0.03	inactive: -0.053	inactive: 0.018	inactive: 0.017	inactive: -0.012	inactive: 0.009	inactive: 0.028	inactive: 0.018	inactive: 0.045	inactive: 0.004	inactive: -0.038	inactive: 0.088	inactive: -0.025	inactive: -0.038	inactive: -0.019	inactive: -0.022	inactive: -0.01	inactive: 0.005
GTPBP10 (UniProt A4D1E9)	inactive: -0.076	inactive: 0.049	inactive: -0.004	inactive: 0.03	inactive: 0.023	inactive: 0.077	inactive: -0.028	inactive: 0.041	inactive: 0.065	inactive: 0.073	inactive: 0.02	inactive: 0.013	inactive: -0.033	inactive: 0.009	inactive: -0.082	inactive: -0.015	inactive: 0.042	inactive: -0.06	inactive: 0.012	inactive: 0.079
GSTM2 (UniProt P28161)	inactive: 0.081	inactive: 0.009	inactive: -0.006	inactive: -0.067	inactive: -0.021	inactive: -0.119	inactive: -0.033	–	inactive: 0.004	inactive: -0.021	inactive: -0.005	inactive: 0.07	inactive: 0.024	inactive: 0.015	inactive: 0.005	inactive: -0.027	inactive: 0.131	inactive: -0.091	inactive: 0.003	–
HDGF (UniProt P51858)	inactive: -0.033	inactive: 0.001	inactive: -0.034	inactive: -0.003	inactive: -0.001	inactive: -0.027	inactive: -0.028	inactive: 0.004	inactive: -0.002	inactive: -0.012	inactive: -0.001	inactive: -0.025	inactive: -0.044	inactive: 0.045	inactive: 0.023	inactive: -0.047	inactive: 0.106	inactive: -0.051	inactive: -0.025	inactive: 0.036
GUSB (UniProt P08236)	inactive: 0.06	inactive: -0.099	inactive: 0.056	inactive: -0.097	inactive: 0.099	inactive: -0.075	inactive: 0.069	inactive: 0.044	inactive: -0.029	inactive: -0.088	inactive: 0.013	inactive: 0.028	inactive: -0.024	inactive: -0.049	inactive: 0.053	inactive: 0.027	active: -0.561	active: 0.355	inactive: -0.008	inactive: 0.038
GSTM4 (UniProt Q03013)	inactive: -0.139	inactive: -0.006	inactive: -0.013	inactive: -0.051	inactive: -0.079	inactive: 0.096	inactive: 0.037	inactive: -0.136	inactive: -0.027	inactive: 0.042	inactive: 0.055	inactive: 0.034	inactive: -0.044	inactive: 0.024	inactive: 0.03	inactive: 0.009	inactive: -0.114	inactive: 0.038	inactive: -0.13	inactive: -0.05
HAUS5 (UniProt O94927)	inactive: 0	inactive: 0.002	inactive: 0.034	inactive: 0.017	inactive: 0.027	inactive: -0.027	inactive: 0	inactive: 0	inactive: 0.033	inactive: 0.021	inactive: 0.004	inactive: 0.048	inactive: -0.02	inactive: -0.038	inactive: -0.016	inactive: 0.026	inactive: 0.01	inactive: -0.087	inactive: -0.008	inactive: 0.03
HADHB (UniProt P55084)	inactive: 0.086	inactive: -0.05	inactive: 0.002	inactive: 0.104	inactive: -0.024	inactive: -0.046	inactive: 0.028	inactive: 0.062	inactive: -0.03	inactive: 0.077	inactive: -0.019	inactive: -0.004	inactive: -0.124	inactive: 0.047	inactive: 0.099	inactive: -0.005	inactive: -0.001	inactive: 0.074	inactive: 0.012	inactive: -0.069
GTPBP3 isoform 2 (UniProt Q969Y2)	inactive: -0.192	inactive: 0.063	inactive: -0.035	inactive: -0.051	inactive: 0.014	inactive: -0.099	inactive: -0.052	inactive: -0.035	inactive: 0.044	inactive: 0.049	inactive: -0.115	inactive: 0.035	inactive: 0.088	inactive: -0.283	inactive: 0.073	inactive: 0.026	inactive: -0.048	inactive: -0.055	inactive: 0.002	inactive: 0.059
HEATR5A (UniProt Q86XA9)	inactive: -0.04	inactive: -0.008	inactive: 0.018	inactive: -0.027	inactive: -0.038	inactive: -0.017	inactive: -0.009	inactive: 0.011	inactive: -0.012	inactive: -0.005	inactive: 0.016	inactive: 0.026	inactive: -0.026	inactive: -0.01	inactive: 0.002	inactive: 0.028	inactive: 0.024	inactive: -0.067	inactive: -0.019	inactive: 0.009
H1-5 (UniProt P16401)	inactive: -0.013	inactive: -0.009	inactive: -0.067	inactive: -0.024	inactive: 0.011	inactive: -0.018	inactive: 0.167	inactive: 0.001	inactive: -0.021	inactive: -0.005	inactive: 0	inactive: -0.013	inactive: -0.004	inactive: 0.049	inactive: 0.013	inactive: -0.05	inactive: -0.02	inactive: 0.02	inactive: -0.057	inactive: -0.027
GTF2A1 (UniProt P52655)	inactive: -0.009	inactive: -0.046	inactive: 0.015	inactive: -0.016	inactive: -0.036	inactive: -0.069	inactive: -0.021	inactive: -0.013	inactive: 0.008	inactive: -0.014	inactive: -0.028	inactive: 0.01	inactive: 0.018	inactive: 0.042	inactive: 0.035	inactive: 0.015	inactive: 0.033	inactive: -0.042	inactive: -0.004	inactive: 0.024
HAUS1 (UniProt Q96CS2)	inactive: 0.158	inactive: -0.037	inactive: 0.012	inactive: -0.015	inactive: 0.012	inactive: -0.034	inactive: -0.004	inactive: 0.003	inactive: 0.005	inactive: -0.026	inactive: -0.001	inactive: 0.007	inactive: 0.082	inactive: 0.031	inactive: -0.007	inactive: 0.005	inactive: -0.029	inactive: -0.084	inactive: 0.001	inactive: -0.012
GRHPR (UniProt Q9UBQ7)	inactive: 0.009	inactive: 0.001	inactive: 0.017	inactive: -0.013	inactive: -0.001	inactive: -0.005	inactive: -0.001	inactive: -0.002	inactive: 0.012	inactive: 0.019	inactive: 0.011	inactive: 0.013	inactive: -0.006	inactive: 0.041	inactive: -0.013	inactive: -0.011	inactive: 0.153	inactive: -0.1	inactive: -0.017	inactive: -0.027
